Experimental findings from publication PMC11784139 are described below.

Residue numbers refer to the chain shown, from its start. For some assays here: A negative result means that nothing was seen under these conditions. Protein sequences can lack the tags named with them.

Holding throughout (experiment): EMSA
In general terms: Mobility shift assays separate free from complexed probe on a gel.

Data set [1] relates to T1, MBP-APR1 L265S (Acinetobacter venetianus RAG-1).
T1 sequence (looked up): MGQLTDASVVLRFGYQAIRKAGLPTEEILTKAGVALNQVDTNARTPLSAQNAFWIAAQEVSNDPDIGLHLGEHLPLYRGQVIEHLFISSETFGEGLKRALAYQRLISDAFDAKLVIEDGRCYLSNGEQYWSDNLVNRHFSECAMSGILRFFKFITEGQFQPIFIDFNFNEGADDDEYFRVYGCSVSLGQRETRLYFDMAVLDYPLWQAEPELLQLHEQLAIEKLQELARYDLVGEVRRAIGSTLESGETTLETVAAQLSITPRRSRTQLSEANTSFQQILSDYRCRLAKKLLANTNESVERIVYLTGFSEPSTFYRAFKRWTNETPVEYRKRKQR
Conditions: 2.55 uM protein, DNA 110 nM; EMSA: 5 mM Tris-HCl pH 7.5, 0.1 mM EDTA, 5 mM MgCl2, 10 mM KCl, 0.2 mM DTT, 30 C, 30 min, native PAGE in 0.5x TBE; recombinant protein; residues 1-335; protein details: MBP; probe letters rebuilt from the primers and the genome.

Data set [2] concerns T2, 6xHis-APR1 V303E (Acinetobacter venetianus RAG-1).
T2 sequence (looked up): T1 sequence (looked up) with S265L, V303E
As to conditions: 2.55 uM protein, DNA 110 nM; EMSA: 5 mM Tris-HCl pH 7.5, 0.1 mM EDTA, 5 mM MgCl2, 10 mM KCl, 0.2 mM DTT, 30 C, 30 min, native PAGE in 0.5x TBE; recombinant protein; residues 1-335; protein details: 6xHis; probe letters rebuilt from the primers and the genome.

For data set [3], the system named is T3, 6xHis-APR1 F318S (Acinetobacter venetianus RAG-1).
T3 sequence (looked up): T1 sequence (looked up) with S265L, F318S
Conditions: 2.55 uM protein, DNA 110 nM; EMSA: 5 mM Tris-HCl pH 7.5, 0.1 mM EDTA, 5 mM MgCl2, 10 mM KCl, 0.2 mM DTT, 30 C, 30 min, native PAGE in 0.5x TBE; recombinant protein; residues 1-335; protein details: 6xHis; probe letters rebuilt from the primers and the genome.

The subject of data set [4] is T4, 6xHis-APR1 T306L (Acinetobacter venetianus RAG-1).
T4 sequence (looked up): T1 sequence (looked up) with S265L, T306L
Conditions: 2.55 uM protein, DNA 110 nM; EMSA: 5 mM Tris-HCl pH 7.5, 0.1 mM EDTA, 5 mM MgCl2, 10 mM KCl, 0.2 mM DTT, 30 C, 30 min, native PAGE in 0.5x TBE; recombinant protein; residues 1-335; protein details: 6xHis; probe letters rebuilt from the primers and the genome.

The test system of data set [5] is T5, 6xHis-APR1 F314S (Acinetobacter venetianus RAG-1).
T5 sequence (looked up): T1 sequence (looked up) with S265L, F314S
Conditions: 2.55 uM protein, DNA 110 nM; EMSA: 5 mM Tris-HCl pH 7.5, 0.1 mM EDTA, 5 mM MgCl2, 10 mM KCl, 0.2 mM DTT, 30 C, 30 min, native PAGE in 0.5x TBE; recombinant protein; residues 1-335; protein details: 6xHis; probe letters rebuilt from the primers and the genome.

Regarding “AATCAATTGTTTATACTCTATTAACAGCTTGTTTTATAACATTATGATTGCTAAAGGTTAACTCGATGCTTTGTATGTGAGTGTATTGAGCTTTCTATTTACATCAAAATTTTATAACAAATTATTTATACATTCATTGTGATTAACATATTTTTCATACTTTACACATATTACTTAAATTAAGTTTTTTGGTTATACGGAAAAAATGAATTTTTCTTAAACTCTGATCCTTTAATAAATTGCAAATCCAAGCAAAAATCTCAGGATTTTTTACACTCTCTTTTTCTAAAAATGTCCCGAAGTGACATGAAAAAACCGATGAATGACTAAACTTGACATTGTGTATTGTCAAATTTGTGCTTTAATAAAGTCATGGTTTATACAGGGTAT (double strand) [almA promoter]”, the binding result in data set [1] is “no binding”; in data set [2], “no binding”; in data set [3], “no binding”; in data set [4], “binds”; in data set [5], “no binding”.
